doi:10.1101/2023.03.30.534840
Results are given in words; binding and its absence hold for the method and conditions named. For some assays here: Binding calls can cover weak binding; strength is not graded here. Where a sequence is shown, tags or fusion partners need not be part of it.

How the values were obtained:
[1] = target: T1, EcSufC (BACTH fusion tested with MeSufDSU) (E. coli) (UniProt P77499); experiment: two-hybrid
T1 sequence: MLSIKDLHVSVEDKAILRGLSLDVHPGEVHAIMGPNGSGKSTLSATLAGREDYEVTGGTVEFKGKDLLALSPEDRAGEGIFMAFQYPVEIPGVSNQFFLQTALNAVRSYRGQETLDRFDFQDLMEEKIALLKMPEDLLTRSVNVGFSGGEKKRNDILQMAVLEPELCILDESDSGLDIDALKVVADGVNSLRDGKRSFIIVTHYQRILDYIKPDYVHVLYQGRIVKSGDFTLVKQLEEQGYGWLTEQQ

[2] = target: T2, EcSufB (BACTH fusion tested with MeSufDSU) (E. coli) (UniProt P77522); experiment: two-hybrid
T2 sequence: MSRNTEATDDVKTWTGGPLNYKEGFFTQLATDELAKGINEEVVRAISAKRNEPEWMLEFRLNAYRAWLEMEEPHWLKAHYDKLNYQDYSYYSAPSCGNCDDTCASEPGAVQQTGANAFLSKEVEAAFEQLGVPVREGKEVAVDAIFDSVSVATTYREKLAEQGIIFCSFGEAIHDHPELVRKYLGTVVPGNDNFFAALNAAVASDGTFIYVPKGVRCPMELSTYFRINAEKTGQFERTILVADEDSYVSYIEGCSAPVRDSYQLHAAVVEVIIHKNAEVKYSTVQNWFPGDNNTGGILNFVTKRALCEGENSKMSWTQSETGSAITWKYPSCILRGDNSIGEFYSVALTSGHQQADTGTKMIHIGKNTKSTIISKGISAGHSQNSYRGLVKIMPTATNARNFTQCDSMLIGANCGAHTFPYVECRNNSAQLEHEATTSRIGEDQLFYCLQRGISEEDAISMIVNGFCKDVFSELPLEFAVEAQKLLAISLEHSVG

MeSufDSU (BACTH fusion) (Monocercomonoides exilis)
binding [1]: binds | binding [2]: no binding
